# Test results published in patent US11013716B2, “Method for providing an increased expression of telomerase, brain-derived neurotrophic factor, stromal cell-derived factor-1, CXC chemokine receptor 4, and/or immune regulatory factor of stem cell” (HAWKING BIOLOGICAL TECHNOLOGY CO., LTD, priority 2013, dated 2021).
# Test system: SOD1-G93A transgenic mice
# Assay: BBB scale of the hind limbs of SOD1-G93A transgenic mice
# Assay type: in vivo
# Conditions: 16 mg/kg once daily intraperitoneal; FIG. 3
# Method: This example used the above SOD1-G93A transgenic mice as the object of study to perform in vivo analysis.
# After the mice were treated for 30 days, the hind limbs of the mice were examined by BBB scale (Basso, Beattie, and Bresnahan (BBB) Locomotor Rating Scale). […] BBB scale is used to record the efficiency of the treatments.
smiles,measurement,value
"Nc1nc2ccc(OC(F)(F)F)cc2s1 [Riluzole, reference compound]",Time after which the BBB scale of the hind limbs decreased rapidly,> 125 days
